# Experimental data published in patent US20120064008A1, “COMPOSITIONS FOR THE TREATMENT OF METASTATIC CANCER AND METHODS OF USE THEREOF” (priority 2009, published 2012).
# For some of these results: At least one read-out could not be matched to a standard name with certainty. Some of these results come from one statement about several compounds together.
# How the values were obtained:
# PC-3MLN4 cells = assay: Normalized mitotic index (histone H3 phospho-Serine-28), PC-3MLN4; type: cell-based, human; settings: at 1 μM; normalized against vehicle-treated cells
# Text: (§1) The mitotic index for each agent was normalized against those obtained from vehicle-treated cells, and compared with the activity of paclitaxel, a known inducer of mitotic arrest.
# PC-3TxR cells = assay: Subcutaneous PC-3TxR tumors in nude mice; type: in vivo; settings: 100 mg/kg three times a week for 3 weeks, in DNTC diluted with saline; start at approximately 100 mm^3
# PC-3M cells = assay: Normalized mitotic index (histone H3 phospho-Serine-28), PC-3M; type: cell-based, human; settings: at 1 μM; normalized against vehicle-treated cells
# Text: as §1
# AT6.1 cells = assay: Normalized mitotic index (histone H3 phospho-Serine-28), AT6.1; type: cell-based, rat; settings: at 1 μM; normalized against vehicle-treated cells
# Text: as §1
compound,measurement,setting,value
"CCCSc1ccc2nc(NC(=O)OC)[nH]c2c1 [Albendazole, albendazole]",Normalized mitotic index PC-3MLN4,PC-3MLN4 cells,1.84
same,tumor size throughout the study,PC-3TxR cells,100-150 mm^3
same,Normalized mitotic index PC-3M,PC-3M cells,1.78
same,Normalized mitotic index AT6.1,AT6.1 cells,1.32
